For part of these data: No signal at the amounts used counts as a negative. For part of these data: For at least one entry, the source does not settle the construct or the ends of the probe. For part of these data: At least one verdict was read from the data and is not stated in words by the source. For part of these data: Protein sequences can lack the tags named with them.

Sequences of proteins named here, by UniProt entry; tags and fusion partners are left off. Residues count along the entry.
UniProt P02769, 25-607: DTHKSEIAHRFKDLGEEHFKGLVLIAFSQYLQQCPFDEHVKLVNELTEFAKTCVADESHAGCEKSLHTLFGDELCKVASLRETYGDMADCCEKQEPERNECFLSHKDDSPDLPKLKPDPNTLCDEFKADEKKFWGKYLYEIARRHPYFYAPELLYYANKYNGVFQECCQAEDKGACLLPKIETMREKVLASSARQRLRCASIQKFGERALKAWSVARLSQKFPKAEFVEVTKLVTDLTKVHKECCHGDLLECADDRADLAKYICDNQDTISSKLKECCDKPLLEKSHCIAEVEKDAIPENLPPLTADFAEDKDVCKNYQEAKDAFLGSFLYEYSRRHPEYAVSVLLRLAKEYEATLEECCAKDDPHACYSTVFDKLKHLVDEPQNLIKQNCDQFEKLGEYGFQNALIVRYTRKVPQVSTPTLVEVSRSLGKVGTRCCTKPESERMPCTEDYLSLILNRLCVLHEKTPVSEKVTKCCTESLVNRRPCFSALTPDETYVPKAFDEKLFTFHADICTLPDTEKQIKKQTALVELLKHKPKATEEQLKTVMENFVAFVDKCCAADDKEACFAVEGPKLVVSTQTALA

One series concerns the target BSA (UniProt P02769). Nature of the series: fluorescence anisotropy. Conditions: 10 mM Tris pH 8, 60 mM NaCl, 0.2 mM MgCl2 (5 mM DTT when reducing), 900 nM probe, 0-80 µM protein, 30 min at room temperature; commercial protein; label: 5' TAMRA on forward strand. Background: Fluorescence polarisation rises when a labelled molecule tumbles more slowly, as on binding a larger partner.

The target of series [1] is T1, NifA 2C-DBD (DNA binding domain with upstream Cys pair) (Gluconacetobacter diazotrophicus) (UniProt A9H5T0).
T1 sequence (looked up): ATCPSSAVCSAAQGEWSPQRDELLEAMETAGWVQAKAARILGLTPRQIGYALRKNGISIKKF
Kind of series: competition with a labelled probe. Conditions: competes with labeled nifH-UAS (900 nM), 50 µM protein; 10 mM Tris pH 8, 60 mM NaCl, 0.2 mM MgCl2 (5 mM DTT when reducing), 900 nM probe, 0-80 µM protein, 30 min at room temperature; recombinant protein; residues 520-581.

In series [2] the target is T2, NifA NC-DBD (DNA binding domain without Cys pair) (Gluconacetobacter diazotrophicus) (UniProt A9H5T0).
T2 sequence (looked up): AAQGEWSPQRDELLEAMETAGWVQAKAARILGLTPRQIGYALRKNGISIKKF
Nature of the series: competition with a labelled probe. Conditions: competes with labeled nifH-UAS (900 nM), 50 µM protein; 10 mM Tris pH 8, 60 mM NaCl, 0.2 mM MgCl2 (5 mM DTT when reducing), 900 nM probe, 0-80 µM protein, 30 min at room temperature; recombinant protein; residues 530-581.

“CGGTTTTGTCAGGCTTCGCACAAAGCCG (double strand) [nifH-UAS duplex, TAMRA-labeled]”: the binding result in the series with BSA was “no binding”. “CGGTTTTGTCAGGCTTCGCACAAAGCCG (double strand) [nifH-UAS duplex, unlabeled competitor]”: the binding result in series [1] and in series [2] was “binds” each time.
